# Laboratory results: PubChem BioAssay AID485313 (National Center for Advancing Translational Sciences (NCATS), 2010)
# This is a selection; strong and weak results do not stand in their true shares. Calls of active or inactive are those of the source. Calls come from the whole dose curve; as a rule, active = well fitted activation curve with a large enough effect; inconclusive = small, poorly fitted or top-dose-only effect; inactive = no such curve, though single readings can be large or run the other way.
# Assay: qHTS Assay for NPC1 Promoter Activators; note: nearly all actives have a fitted effect of over 60% in size
# Conditions: Huh7 NPC1 promoter luciferase reporter, 24 h
# Description: NIH Chemical Genomics Center [NCGC] NIH Molecular Libraries Probe Production centers Network [MLPCN] MLPCN Grant: MH089375-01A1 Assay Submitter (PI): Yiannis A. Ioannou NCGC Assay Overview: Niemann Pick Type C (NPC) is a rare neurodegenerative lipidosis that is characterized by lipid storage in the endosomal/lysosomal system. Treatment modalities for this devastating disease are currently non-existent due to the severe obstacles associated with accessing the central nervous system with proteins or genes. The majority of mutations causing NPC disease are missense mutations that are distributed throughout the length of the NPC1 protein, with the most prevalent being the I1061T allele. Although NPC1 mutant proteins may be functional, they are typically trapped in the ER due to misfolding. […] We have developed and optimized a cell based luciferase reporter assay in 1536 well format for the identification of up-regulators of the mutant NPC1 promoter.
# The NPC1 promoter is cloned in front of the luciferase reporter gene, therefore NPC promoter activation results in luciferase expression. Frozen stock of the NPC1 promoter transfected Huh7 cells were obtained from the laboratory of Dr. Yiannis Ioannou (The Mount Sinai School of Medicine, New York, NY). […] 7.#Read using the luminescence protocol on the ViewLux plate reader (Perkin Elmer).
# Potency is the fitted concentration of half-maximal effect.
row,SMILES,Potency
1,Cc1cc(=O)oc2cc(OCc3ccccc3)ccc12,active: 2 µM
